Some of the results follow.

Sequences of proteins named here, by UniProt entry; tags and fusion partners are left off. A change or cut given only in a name is not applied to a line headed by its entry.
UniProt O75534: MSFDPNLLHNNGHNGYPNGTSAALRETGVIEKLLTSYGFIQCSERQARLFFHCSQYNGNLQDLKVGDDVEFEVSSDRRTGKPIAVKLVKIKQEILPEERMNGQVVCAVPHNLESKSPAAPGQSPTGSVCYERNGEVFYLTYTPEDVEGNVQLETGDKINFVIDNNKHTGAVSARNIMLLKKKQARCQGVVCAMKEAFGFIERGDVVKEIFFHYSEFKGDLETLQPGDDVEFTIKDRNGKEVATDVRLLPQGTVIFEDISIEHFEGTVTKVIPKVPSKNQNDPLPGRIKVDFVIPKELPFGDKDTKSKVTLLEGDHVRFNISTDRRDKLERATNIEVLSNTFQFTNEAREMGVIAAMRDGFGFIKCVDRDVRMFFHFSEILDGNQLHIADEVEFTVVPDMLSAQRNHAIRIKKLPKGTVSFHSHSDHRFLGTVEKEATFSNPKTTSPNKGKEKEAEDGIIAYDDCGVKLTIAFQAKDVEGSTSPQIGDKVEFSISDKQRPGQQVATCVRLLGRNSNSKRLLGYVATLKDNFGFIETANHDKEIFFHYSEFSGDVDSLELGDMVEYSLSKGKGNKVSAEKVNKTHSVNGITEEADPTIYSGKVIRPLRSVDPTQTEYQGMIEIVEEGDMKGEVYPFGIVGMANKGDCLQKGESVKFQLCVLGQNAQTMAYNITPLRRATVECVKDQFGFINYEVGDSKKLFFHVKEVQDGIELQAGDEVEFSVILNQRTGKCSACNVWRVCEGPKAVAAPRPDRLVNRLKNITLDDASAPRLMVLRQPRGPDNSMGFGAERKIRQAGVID
UniProt P01037: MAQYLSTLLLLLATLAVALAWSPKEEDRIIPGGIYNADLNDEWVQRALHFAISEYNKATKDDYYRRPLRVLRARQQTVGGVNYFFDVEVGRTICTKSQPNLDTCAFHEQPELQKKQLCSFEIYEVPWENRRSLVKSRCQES
UniProt Q14894: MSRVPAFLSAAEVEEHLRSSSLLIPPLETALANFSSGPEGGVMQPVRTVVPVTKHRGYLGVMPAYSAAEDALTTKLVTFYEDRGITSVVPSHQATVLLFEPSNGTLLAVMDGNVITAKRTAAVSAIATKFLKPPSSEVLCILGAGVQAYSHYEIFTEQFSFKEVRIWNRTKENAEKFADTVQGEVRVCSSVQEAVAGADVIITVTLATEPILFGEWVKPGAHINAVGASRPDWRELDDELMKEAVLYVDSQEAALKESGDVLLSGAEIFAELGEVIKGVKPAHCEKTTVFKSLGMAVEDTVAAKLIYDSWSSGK
UniProt Q9P2B4: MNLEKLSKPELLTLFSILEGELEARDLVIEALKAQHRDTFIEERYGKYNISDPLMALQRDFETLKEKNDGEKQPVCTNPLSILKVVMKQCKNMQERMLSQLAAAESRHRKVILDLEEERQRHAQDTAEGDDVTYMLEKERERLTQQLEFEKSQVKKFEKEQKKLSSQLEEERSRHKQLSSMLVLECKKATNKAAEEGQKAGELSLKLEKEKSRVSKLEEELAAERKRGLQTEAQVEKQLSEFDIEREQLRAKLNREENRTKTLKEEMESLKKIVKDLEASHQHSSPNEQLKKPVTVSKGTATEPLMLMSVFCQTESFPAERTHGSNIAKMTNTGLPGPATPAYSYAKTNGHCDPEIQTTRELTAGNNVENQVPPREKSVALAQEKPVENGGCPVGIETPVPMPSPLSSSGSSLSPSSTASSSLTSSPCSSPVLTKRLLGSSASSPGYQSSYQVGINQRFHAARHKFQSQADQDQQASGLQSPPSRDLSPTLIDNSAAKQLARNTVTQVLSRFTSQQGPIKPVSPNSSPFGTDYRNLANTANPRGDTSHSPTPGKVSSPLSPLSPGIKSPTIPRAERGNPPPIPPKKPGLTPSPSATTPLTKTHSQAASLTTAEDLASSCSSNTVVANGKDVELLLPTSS
UniProt P00167, whole entry, looked up: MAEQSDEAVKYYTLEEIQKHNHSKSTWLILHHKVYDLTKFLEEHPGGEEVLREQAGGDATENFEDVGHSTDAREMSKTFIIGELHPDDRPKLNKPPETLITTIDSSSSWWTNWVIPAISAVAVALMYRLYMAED
UniProt Q9BQA9: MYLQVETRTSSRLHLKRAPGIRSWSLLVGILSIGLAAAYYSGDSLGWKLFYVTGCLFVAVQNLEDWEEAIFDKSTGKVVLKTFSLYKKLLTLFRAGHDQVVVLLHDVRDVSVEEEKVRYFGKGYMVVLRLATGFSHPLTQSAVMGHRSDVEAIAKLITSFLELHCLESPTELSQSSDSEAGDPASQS
UniProt Q9UBX1: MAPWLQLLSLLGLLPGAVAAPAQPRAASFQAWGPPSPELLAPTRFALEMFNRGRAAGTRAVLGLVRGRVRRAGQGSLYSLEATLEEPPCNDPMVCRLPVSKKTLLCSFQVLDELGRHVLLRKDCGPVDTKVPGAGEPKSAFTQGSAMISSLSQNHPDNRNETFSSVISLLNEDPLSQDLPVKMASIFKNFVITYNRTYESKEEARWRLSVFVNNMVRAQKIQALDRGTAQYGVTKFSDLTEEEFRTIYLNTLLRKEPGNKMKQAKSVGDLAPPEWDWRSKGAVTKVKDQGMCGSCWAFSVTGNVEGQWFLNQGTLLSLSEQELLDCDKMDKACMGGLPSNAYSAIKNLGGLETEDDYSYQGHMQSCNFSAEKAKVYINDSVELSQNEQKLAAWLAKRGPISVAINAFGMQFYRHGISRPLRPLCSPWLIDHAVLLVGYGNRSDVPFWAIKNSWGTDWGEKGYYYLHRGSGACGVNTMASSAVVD
UniProt O60931: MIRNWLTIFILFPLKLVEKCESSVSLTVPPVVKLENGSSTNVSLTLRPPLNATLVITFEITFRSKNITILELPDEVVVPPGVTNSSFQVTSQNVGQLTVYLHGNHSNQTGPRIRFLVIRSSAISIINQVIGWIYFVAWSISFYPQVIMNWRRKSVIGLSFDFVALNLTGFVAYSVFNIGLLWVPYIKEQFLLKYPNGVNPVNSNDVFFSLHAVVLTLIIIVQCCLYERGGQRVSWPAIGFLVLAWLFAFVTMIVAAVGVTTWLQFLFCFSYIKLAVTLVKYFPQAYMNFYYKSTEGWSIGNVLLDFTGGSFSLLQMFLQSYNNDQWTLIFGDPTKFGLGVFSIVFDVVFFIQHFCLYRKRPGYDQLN
UniProt P54108: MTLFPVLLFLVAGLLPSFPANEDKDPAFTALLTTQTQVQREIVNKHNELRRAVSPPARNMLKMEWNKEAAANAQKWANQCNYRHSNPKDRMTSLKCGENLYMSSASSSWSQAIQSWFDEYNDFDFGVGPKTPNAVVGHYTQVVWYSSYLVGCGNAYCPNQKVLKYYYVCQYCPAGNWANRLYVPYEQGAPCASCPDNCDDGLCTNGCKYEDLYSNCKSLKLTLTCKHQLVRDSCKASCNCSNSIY
UniProt Q03060: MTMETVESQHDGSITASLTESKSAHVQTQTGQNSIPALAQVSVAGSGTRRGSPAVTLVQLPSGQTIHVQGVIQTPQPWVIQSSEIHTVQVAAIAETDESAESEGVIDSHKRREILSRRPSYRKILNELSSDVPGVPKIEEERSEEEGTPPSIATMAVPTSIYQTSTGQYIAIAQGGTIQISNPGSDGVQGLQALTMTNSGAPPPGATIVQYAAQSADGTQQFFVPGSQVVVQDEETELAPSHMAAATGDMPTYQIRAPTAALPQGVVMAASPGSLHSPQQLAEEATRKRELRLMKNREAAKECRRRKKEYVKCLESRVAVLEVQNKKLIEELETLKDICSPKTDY
UniProt P48729: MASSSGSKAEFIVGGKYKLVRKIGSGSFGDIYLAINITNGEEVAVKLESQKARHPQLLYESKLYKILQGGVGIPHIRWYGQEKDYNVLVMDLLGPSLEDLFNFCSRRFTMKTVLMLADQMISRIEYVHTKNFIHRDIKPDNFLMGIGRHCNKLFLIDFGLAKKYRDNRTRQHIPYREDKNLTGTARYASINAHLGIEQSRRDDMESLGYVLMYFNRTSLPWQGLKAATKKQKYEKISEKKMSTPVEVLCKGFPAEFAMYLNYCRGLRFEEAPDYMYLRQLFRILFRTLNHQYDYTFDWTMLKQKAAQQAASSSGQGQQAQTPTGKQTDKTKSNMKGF
UniProt Q6GPI1, whole entry, looked up: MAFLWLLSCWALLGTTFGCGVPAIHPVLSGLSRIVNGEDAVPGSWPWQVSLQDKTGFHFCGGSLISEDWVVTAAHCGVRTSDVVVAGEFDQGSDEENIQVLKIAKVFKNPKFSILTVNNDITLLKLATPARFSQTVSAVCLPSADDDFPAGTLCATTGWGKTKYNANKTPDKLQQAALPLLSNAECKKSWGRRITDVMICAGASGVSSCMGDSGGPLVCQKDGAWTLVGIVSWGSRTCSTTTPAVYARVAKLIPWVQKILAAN
UniProt O43310: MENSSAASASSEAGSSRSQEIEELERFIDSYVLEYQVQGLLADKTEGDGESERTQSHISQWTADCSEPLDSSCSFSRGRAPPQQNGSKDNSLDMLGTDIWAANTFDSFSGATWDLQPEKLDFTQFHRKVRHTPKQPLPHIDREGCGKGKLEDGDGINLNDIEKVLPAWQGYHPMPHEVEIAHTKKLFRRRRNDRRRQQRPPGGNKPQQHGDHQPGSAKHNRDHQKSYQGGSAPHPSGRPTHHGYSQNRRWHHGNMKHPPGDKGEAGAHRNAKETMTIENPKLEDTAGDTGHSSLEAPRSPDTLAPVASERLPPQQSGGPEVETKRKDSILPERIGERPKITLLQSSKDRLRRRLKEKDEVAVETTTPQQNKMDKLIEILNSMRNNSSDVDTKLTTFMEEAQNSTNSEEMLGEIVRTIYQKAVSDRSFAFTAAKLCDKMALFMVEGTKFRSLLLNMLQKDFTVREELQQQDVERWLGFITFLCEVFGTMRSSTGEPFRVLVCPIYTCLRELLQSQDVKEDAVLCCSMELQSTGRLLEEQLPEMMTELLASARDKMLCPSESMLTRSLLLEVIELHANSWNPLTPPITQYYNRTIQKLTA
UniProt Q9NXE8: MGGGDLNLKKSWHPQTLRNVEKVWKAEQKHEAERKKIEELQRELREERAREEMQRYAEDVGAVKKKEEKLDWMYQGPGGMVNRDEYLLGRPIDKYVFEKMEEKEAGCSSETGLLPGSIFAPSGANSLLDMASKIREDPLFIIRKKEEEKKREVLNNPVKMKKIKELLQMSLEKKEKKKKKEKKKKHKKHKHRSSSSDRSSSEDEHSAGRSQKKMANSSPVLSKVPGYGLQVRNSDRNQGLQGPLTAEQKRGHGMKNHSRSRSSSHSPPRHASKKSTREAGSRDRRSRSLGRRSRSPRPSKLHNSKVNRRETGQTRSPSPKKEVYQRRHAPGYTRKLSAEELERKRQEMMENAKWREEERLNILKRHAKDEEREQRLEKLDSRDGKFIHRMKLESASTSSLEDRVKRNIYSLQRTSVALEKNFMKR
UniProt Q49AN0: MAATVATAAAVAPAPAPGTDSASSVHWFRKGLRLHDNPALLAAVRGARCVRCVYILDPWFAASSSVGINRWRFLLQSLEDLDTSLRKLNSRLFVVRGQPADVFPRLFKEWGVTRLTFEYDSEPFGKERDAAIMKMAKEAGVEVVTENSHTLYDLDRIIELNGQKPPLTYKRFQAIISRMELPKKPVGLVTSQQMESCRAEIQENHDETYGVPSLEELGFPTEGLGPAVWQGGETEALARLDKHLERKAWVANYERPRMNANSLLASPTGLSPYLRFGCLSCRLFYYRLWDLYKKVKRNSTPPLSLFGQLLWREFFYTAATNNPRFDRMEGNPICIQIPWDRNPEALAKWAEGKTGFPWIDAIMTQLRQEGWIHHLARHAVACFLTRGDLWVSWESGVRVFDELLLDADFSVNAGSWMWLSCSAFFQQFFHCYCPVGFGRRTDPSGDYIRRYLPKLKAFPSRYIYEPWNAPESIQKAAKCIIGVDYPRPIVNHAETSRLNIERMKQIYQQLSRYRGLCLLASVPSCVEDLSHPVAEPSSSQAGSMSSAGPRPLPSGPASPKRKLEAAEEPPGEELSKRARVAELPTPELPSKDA
UniProt O95715: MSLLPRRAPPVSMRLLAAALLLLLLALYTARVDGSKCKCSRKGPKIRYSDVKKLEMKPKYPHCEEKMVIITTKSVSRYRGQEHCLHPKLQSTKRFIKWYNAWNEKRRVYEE
UniProt Q9UBG3: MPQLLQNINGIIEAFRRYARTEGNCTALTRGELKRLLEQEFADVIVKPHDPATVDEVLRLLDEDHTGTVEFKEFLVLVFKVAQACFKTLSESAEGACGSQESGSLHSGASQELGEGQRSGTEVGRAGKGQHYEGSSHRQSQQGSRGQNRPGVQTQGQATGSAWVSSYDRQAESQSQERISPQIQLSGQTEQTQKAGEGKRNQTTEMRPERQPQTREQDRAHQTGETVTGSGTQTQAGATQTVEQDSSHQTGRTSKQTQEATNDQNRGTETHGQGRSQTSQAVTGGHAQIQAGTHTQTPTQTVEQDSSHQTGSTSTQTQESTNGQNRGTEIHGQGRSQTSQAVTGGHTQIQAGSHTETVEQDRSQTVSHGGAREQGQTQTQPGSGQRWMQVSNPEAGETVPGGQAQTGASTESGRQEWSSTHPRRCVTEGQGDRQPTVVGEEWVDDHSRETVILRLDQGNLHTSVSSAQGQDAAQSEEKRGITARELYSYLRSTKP

Compound in one test: C1=CC=C(C=C1)C2=NC(=C(N2)C3=CC=NC=C3)C4=CC(=C(C=C4)Cl)O
As to the kind of experiment: log2 fold change, soluble protein after heating vs DMSO (PISA); higher = thermal stabilisation; K562 lysate, 10 uM; active = over 0.2 and 3.5 SD of the protein, either way, in both replicates (recomputed). The essentials:
(§1)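 A 30 min treatment with 10 μM compound was applied to crude K562 extract at 1 mg/mL protein in PBS pH 7.4 with 1 mM MgCl2. Heating for 3 min spanned 48°C-58°C, after which aliquots were pooled, adjusted to 0.5% NP-40 at 4°C and spun at 21,000xg for 90 min. TMTpro 16plex LC-MS/MS of the supernatant, with channel sums equalised, gave values recorded as log-two fold change in thermal stability against solvent controls, from duplicates.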
Consider CRIP2 isoform 2 (UniProt P52943), for which the log2 fold change was inactive: 0.078.

Regarding CSDE1 isoform 3 (UniProt O75534), the log2 fold change was inactive: 0.027.

As for CSNK1D (UniProt P48730), the log2 fold change is inactive: 0.124.

In the case of CST1 (UniProt P01037), the log2 fold change was inactive: -0.107.

In the case of CST4 (UniProt P01036), the log2 fold change is inactive: 0.

On to CRYM (UniProt Q14894), for which the log2 fold change was inactive: 0.19.

As to CTTNBP2NL (UniProt Q9P2B4), the log2 fold change is inactive: -0.037.

For the target CYB5A (UniProt P00167), the log2 fold change is inactive: -0.007.

Regarding CYBC1 (UniProt Q9BQA9), the log2 fold change was inactive: -0.008.

With CSRNP2 (UniProt Q9H175), the log2 fold change was inactive: 0.024.

Consider CSAD isoform 3 (UniProt Q9Y600), for which the log2 fold change is inactive: 0.044.

On to CRTC2 (UniProt H0YDQ8), for which the log2 fold change is inactive: 0.018.

As to CTSG (UniProt P08311), the log2 fold change was inactive: 0.014.

For the target CRLS1 (UniProt Q9UJA2), the log2 fold change is inactive: 0.056.

Consider CTSF (UniProt Q9UBX1), for which the log2 fold change is inactive: 0.076.

Turning to CTDSP1 (UniProt Q9GZU7), the log2 fold change was inactive: -0.041.

Turning to CTNS isoform 2 (UniProt O60931), the log2 fold change is inactive: 0.144.

In the case of CXorf40B (UniProt Q96DE9), the log2 fold change was inactive: -0.091.

In the case of CRISP3 isoform 3 (UniProt P54108), the log2 fold change is inactive: -0.006.

Regarding CREM isoform 1 (UniProt Q03060), the log2 fold change is inactive: -0.046.

As to CS (UniProt F8VU34), the log2 fold change was inactive: -0.084.

For CSNK1A1 isoform 3 (UniProt P48729), the log2 fold change is inactive: -0.006.

Compound in a further test: C1=CC=C2C(=C1)C3=NNC4=CC=CC(=C43)C2=O
The test is described as above. The essentials: as §1
Consider CSNK1D (UniProt P48730), for which the log2 fold change is active: 0.415.

For CRYM (UniProt Q14894), the log2 fold change was inactive: -0.008.

With CTTNBP2NL (UniProt Q9P2B4), the log2 fold change was inactive: -0.121.

For CRAMP1 (UniProt Q96RY5), the log2 fold change is inactive: -0.294.

CTRB2 (UniProt Q6GPI1): the log2 fold change is inactive: -0.055.

Consider CTIF (UniProt O43310), for which the log2 fold change was inactive: -0.124.

Regarding CWC25 (UniProt Q9NXE8), the log2 fold change is inactive: 0.028.

Consider CRY2 (UniProt Q49AN0), for which the log2 fold change is inactive: 0.032.

Turning to CRTC2 (UniProt H0YDQ8), the log2 fold change was inactive: -0.075.

On to CTNS isoform 2 (UniProt O60931), for which the log2 fold change is inactive: 0.042.

In the case of CXCL14 (UniProt O95715), the log2 fold change is inactive: -0.268.

In the case of CRNN (UniProt Q9UBG3), the log2 fold change was inactive: 0.002.

In the case of CXorf40B (UniProt Q96DE9), the log2 fold change was inactive: -0.165.

Source of the values: the supplement of paper PMC10849652.
